In the supplement of paper PMC11006884:
Shown are results outside the selection of targets with a hit, which stands elsewhere. This is a noisy data set. The list shows a part of the results, in another mix than the full data.

Protein sequences, listed by entry. Tags and fused reporters are not part of them. Lines headed by an entry give the natural chain unless they say otherwise; changes in a name come on top.
UniProt Q99798: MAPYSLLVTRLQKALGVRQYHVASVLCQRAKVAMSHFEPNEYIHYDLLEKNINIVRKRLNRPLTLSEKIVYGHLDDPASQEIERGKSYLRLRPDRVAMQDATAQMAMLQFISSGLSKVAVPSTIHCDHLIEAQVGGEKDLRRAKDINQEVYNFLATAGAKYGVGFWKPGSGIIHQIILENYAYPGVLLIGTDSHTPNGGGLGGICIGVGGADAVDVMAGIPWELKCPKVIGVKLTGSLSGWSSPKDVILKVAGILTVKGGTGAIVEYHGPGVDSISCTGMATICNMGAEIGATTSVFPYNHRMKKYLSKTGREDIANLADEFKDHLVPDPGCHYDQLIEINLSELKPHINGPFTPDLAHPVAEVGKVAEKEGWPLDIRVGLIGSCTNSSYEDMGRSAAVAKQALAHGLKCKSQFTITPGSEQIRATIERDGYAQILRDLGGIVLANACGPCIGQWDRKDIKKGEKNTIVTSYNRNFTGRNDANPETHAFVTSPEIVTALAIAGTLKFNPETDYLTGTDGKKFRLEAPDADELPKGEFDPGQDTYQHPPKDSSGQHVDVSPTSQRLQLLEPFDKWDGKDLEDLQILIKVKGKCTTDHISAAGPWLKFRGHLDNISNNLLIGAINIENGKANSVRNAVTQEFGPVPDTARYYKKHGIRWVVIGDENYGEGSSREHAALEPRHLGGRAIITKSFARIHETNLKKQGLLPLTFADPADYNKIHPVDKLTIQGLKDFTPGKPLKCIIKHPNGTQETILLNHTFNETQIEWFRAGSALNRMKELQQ
UniProt Q96KQ7: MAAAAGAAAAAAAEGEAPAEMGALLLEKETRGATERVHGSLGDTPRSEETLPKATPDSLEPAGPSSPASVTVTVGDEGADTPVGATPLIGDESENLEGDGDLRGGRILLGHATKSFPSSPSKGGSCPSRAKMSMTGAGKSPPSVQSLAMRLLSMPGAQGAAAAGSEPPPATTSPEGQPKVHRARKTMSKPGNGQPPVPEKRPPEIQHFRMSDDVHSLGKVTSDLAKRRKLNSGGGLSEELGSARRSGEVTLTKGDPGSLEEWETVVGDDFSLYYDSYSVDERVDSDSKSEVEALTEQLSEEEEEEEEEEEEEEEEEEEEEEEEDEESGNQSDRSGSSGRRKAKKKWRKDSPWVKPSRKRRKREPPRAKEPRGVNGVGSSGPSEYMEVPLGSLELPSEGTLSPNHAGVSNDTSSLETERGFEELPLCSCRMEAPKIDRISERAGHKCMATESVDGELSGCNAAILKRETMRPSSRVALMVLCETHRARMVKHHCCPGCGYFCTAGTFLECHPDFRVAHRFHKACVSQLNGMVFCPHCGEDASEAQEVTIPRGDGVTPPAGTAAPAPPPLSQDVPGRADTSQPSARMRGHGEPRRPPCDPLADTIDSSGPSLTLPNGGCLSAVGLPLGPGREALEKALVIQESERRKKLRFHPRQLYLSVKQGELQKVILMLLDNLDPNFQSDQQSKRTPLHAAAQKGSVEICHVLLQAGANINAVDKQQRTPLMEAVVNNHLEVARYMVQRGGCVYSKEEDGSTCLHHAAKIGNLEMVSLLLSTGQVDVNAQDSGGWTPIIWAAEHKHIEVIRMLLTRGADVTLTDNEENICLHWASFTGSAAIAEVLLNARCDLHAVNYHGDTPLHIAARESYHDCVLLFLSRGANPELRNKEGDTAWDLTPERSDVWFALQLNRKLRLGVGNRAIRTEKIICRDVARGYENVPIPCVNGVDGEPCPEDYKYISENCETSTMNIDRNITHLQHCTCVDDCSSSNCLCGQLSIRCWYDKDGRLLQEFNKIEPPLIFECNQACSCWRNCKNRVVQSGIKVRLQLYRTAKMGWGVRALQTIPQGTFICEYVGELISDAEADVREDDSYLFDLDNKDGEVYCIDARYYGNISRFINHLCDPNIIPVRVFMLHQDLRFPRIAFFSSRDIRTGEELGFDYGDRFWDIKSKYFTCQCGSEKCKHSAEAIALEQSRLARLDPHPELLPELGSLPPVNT
UniProt Q99570, whole entry, looked up: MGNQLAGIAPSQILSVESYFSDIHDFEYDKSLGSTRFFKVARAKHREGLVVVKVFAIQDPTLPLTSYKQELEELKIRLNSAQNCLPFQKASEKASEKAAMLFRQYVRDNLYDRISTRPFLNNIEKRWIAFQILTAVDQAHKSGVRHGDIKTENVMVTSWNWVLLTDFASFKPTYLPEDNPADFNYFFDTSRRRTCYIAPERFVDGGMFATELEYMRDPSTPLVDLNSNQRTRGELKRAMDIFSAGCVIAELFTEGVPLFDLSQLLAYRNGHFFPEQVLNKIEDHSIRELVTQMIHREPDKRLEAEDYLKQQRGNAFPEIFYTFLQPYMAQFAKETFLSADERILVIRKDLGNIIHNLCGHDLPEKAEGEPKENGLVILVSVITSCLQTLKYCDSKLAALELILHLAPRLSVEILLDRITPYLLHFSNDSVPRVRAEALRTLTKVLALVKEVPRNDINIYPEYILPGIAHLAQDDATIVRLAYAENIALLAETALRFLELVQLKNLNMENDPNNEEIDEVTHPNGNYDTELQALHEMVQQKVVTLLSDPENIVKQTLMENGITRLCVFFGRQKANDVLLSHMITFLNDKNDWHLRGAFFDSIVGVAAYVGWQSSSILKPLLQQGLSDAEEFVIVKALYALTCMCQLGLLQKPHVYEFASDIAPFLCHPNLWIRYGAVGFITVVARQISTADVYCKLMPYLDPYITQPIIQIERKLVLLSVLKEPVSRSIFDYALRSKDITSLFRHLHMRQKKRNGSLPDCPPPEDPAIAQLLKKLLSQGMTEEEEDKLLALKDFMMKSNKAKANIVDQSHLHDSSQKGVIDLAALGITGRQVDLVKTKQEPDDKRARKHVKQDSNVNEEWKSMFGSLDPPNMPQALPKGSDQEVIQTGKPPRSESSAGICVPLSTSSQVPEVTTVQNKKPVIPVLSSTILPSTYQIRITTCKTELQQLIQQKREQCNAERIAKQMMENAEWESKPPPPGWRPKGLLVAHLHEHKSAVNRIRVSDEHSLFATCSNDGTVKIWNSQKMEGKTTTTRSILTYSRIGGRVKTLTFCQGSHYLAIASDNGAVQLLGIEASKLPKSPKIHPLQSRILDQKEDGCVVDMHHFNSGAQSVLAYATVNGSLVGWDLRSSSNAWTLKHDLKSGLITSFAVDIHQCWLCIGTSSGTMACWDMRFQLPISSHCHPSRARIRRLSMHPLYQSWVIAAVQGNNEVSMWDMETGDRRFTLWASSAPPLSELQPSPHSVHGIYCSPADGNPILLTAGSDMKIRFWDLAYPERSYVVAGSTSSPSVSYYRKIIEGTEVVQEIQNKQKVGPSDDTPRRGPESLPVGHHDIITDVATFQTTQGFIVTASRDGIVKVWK
UniProt Q96KR1: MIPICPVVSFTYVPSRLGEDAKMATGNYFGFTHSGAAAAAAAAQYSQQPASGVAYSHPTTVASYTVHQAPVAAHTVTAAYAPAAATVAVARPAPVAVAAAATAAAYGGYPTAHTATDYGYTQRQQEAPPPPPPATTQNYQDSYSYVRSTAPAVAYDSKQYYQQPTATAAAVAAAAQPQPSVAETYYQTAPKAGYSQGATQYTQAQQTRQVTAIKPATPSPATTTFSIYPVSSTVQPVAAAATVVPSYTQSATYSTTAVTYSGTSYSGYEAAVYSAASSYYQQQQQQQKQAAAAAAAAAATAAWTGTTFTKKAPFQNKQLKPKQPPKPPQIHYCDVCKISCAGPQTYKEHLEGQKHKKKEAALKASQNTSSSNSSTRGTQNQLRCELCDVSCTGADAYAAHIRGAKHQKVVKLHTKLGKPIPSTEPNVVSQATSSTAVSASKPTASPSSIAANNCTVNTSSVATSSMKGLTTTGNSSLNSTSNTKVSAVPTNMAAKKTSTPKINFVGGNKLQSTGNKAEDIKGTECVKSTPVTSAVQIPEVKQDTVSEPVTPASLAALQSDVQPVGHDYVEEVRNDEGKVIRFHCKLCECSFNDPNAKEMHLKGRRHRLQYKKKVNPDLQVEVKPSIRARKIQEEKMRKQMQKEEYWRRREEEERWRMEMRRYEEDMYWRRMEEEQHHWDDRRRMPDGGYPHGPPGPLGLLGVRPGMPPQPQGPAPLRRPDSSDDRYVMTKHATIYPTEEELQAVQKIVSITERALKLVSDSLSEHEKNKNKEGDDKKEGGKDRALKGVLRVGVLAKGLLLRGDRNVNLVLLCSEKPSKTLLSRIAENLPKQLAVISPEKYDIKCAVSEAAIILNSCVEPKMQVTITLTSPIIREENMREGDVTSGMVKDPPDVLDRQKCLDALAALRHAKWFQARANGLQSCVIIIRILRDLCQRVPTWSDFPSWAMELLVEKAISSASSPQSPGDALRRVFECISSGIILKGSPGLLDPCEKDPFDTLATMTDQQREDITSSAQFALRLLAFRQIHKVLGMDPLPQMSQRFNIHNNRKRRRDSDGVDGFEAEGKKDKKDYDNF
UniProt Q96SB4, whole entry, looked up: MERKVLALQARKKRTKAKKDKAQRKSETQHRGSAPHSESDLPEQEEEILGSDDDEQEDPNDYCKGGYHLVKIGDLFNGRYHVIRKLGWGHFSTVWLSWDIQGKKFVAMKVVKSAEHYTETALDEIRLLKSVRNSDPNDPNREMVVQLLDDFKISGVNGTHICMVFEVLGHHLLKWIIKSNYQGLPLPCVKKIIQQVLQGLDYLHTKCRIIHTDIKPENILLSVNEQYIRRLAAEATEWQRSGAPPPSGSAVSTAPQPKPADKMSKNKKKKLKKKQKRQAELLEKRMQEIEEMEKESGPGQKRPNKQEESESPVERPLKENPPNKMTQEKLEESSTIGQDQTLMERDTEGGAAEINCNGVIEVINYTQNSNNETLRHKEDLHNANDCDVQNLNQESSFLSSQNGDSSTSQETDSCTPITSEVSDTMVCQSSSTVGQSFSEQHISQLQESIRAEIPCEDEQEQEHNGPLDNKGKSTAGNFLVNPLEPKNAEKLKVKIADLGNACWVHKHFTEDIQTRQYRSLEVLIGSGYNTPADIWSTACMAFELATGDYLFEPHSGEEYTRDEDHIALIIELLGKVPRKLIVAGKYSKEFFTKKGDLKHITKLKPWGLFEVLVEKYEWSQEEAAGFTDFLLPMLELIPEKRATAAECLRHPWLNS
UniProt Q96RL1: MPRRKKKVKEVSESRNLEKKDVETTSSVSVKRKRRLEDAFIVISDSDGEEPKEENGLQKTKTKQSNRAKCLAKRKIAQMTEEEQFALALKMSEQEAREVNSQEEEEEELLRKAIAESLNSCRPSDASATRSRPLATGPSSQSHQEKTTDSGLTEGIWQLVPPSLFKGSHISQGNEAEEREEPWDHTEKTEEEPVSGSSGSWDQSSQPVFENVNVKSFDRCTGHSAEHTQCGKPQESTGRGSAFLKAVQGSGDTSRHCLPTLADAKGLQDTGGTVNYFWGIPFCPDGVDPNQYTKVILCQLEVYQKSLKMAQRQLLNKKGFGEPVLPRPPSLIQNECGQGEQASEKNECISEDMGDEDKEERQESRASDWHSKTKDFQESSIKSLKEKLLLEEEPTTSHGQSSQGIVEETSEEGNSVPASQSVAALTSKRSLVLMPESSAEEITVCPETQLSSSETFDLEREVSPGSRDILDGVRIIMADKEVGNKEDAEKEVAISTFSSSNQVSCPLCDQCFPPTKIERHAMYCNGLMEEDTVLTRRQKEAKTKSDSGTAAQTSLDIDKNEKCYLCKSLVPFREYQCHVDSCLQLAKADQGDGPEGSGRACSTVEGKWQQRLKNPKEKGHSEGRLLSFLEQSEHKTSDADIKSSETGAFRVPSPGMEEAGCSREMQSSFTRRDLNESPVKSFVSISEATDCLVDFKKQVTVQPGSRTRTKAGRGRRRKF
UniProt Q96S15: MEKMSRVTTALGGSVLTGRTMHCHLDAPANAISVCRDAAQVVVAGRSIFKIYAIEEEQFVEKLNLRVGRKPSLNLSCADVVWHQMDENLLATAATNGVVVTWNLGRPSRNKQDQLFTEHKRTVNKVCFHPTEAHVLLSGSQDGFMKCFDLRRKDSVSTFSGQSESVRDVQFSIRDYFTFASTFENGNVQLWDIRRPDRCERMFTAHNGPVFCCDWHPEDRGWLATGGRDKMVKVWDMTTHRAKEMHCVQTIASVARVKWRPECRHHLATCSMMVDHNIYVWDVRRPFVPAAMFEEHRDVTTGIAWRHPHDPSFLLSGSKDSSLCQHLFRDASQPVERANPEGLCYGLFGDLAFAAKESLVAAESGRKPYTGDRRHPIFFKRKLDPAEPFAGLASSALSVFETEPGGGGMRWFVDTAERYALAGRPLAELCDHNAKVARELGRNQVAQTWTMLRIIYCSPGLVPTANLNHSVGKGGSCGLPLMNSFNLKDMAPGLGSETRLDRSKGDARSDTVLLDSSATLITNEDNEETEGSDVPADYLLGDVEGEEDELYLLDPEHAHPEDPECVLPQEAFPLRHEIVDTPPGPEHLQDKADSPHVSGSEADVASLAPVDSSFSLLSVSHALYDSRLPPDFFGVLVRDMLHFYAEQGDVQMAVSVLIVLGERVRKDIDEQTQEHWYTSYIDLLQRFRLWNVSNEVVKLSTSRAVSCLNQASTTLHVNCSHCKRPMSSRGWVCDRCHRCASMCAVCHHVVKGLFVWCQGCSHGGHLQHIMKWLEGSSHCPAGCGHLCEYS

Compound: COC(=O)/C=C/c1ccccc1 [methyl cinnamate]
Test: log2 ratio of iodoacetamide-alkyne labeling of the cysteine site, DMSO over compound (competition); higher = stronger covalent engagement of the cysteine by the compound, active = 1 or more
Details: 500 µM; treatment time 1 h; system: HEK293T cell lysate
Outline: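 Electrophile (500 µM) or vehicle was added to HEK293T lysate (2 mg/mL) for 1 h at ambient temperature before iodoacetamide alkyne labelling (1 h) and click coupling to sCIP-TMT reagents. After pooling, overnight trypsin digestion at 37 °C, streptavidin enrichment and acid elution, peptides were measured by Orbitrap Eclipse LC-MS/MS with FAIMS and quantified in FragPipe. Each cysteine's log2 competition ratio compares mean control-channel with mean compound-channel reporter intensity, control over compound. Data came from duplicate channels across three replicates, excluding cysteines quantified in only one replicate.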

log2 ratio of iodoacetamide-alkyne labeling, inactive:
FUBP3 C148 (UniProt Q96I24) 0.118
VAT1 C86 (UniProt Q99536) 0.294
MARK4 C216 (UniProt Q96L34) 0.39
PDLIM2 C289 (UniProt Q96JY6) -0.0385
RBM15 C785 (UniProt Q96T37) 0.238
UniProt Q96MG7_C283 0.174
EP400 C162 (UniProt Q96L91) 0.268
PARK7 C106 (UniProt Q99497) 0.181
L3MBTL3 C169 (UniProt Q96JM7) 0.465
ACO2 C448 (UniProt Q99798) 0.285
EHMT2 C1175 (UniProt Q96KQ7) 0.0165
STRBP C40 (UniProt Q96SI9) -0.129
VCPIP1 C1178 (UniProt Q96JH7) 0.118
PIK3R4 C899 (UniProt Q99570) 0.285
ADO C239 (UniProt Q96SZ5) 0.206
PSMB7 C74 (UniProt Q99436) 0.139
ZFR C974 (UniProt Q96KR1) 0.16
NUP88 C561 (UniProt Q99567) 0.0381
SRPK1 C647 (UniProt Q96SB4) 0.361
UIMC1 C601 (UniProt Q96RL1) 0.529
WDR24 C474 (UniProt Q96S15) 0.00859
DOK1 C308 (UniProt Q99704) 0.346
CCT7 C310 (UniProt Q99832) 0.111
PGAM5 C168 (UniProt Q96HS1) 0.18
PIP5K1A C480 (UniProt Q99755) 0.184
L3MBTL3 C515 (UniProt Q96JM7) -0.18
FAM110A C114 (UniProt Q9BQ89) 0.298
AKAP9 C2571 (UniProt Q99996) 0.327
SCYL1 C309 (UniProt Q96KG9) 0.117
MYBBP1A C1009 (UniProt Q9BQG0) -0.146
MYBBP1A C942 (UniProt Q9BQG0) 0.306
GRWD1 C11 (UniProt Q9BQ67) 0.352
MED15 C660 (UniProt Q96RN5) 0.0718
WRNIP1 C272 (UniProt Q96S55) 0.0813
ZNF512 C324 (UniProt Q96ME7) -0.00499
CCT7 C345 (UniProt Q99832) 0.146
PURB C238 (UniProt Q96QR8) 0.00791

2 records picked at random from the list so far, as already listed:
log2 ratio of iodoacetamide-alkyne labeling, inactive:
VCPIP1 C1178 (UniProt Q96JH7) 0.118
FAM110A C114 (UniProt Q9BQ89) 0.298
